At least one read-out could not be matched to a standard name with certainty. Some entries repeat one wording, which the source may state once for all of them.
Experiment: Formulation stability of PPC injectable preparations: property, transparency, particle size, pH
Conditions: bile salt as solubilizing agent

| SMILES | solubilization of PPC |
| --- | --- |
| C[C@H](CCC(=O)NCC(=O)O)[C@H]1CC[C@H]2[C@@H]3[C@H](O)C[C@@H]4C[C@H](O)CC[C@]4(C)[C@H]3C[C@H](O)[C@]12C [GCA, 2-[[(4R)-4-[(3R,5S,7R,8R,9S,10S,12S,13R,14S,17R)-3,7,12-trihydroxy-10,13-dimethyl-2,3,4,5,6,7,8,9,11,12,14,15,16,17-tetradecahydro-1H-cyclopenta[a]phenanthren-17-yl]pentanoyl]amino]acetic acid] | stably solubilize PPC |
| C[C@H](CCC(=O)O)[C@H]1CC[C@H]2[C@@H]3[C@@H](O)C[C@@H]4C[C@H](O)CC[C@]4(C)[C@H]3CC[C@]12C [UDCA, (4R)-4-[(3R,5S,7S,8R,9S,10S,13R,14S,17R)-3,7-dihydroxy-10,13-dimethyl-2,3,4,5,6,7,8,9,11,12,14,15,16,17-tetradecahydro-1H-cyclopenta[a]phenanthren-17-yl]pentanoic acid] | stably solubilize PPC |
| C[C@H](CCC(=O)O)[C@H]1CC[C@H]2[C@@H]3C(=O)C[C@@H]4CC(=O)CC[C@]4(C)[C@H]3CC(=O)[C@]12C [DHCA, (4R)-4-[(5S,8R,9S,10S,13R,14S,17R)-10,13-dimethyl-3,7,12-trioxo-1,2,4,5,6,8,9,11,14,15,16,17-dodecahydrocyclopenta[a]phenanthren-17-yl]pentanoic acid] | not able to solubilize PPC |
| C[C@H](CCC(=O)NCC(=O)O)[C@H]1CC[C@H]2[C@@H]3CCC4C[C@H](O)CC[C@]4(C)[C@H]3C[C@H](O)[C@]12C (stereo partly drawn) [GDCA, 2-[[(4R)-4-[(3R,8R,9S,10S,12S,13R,14S,17R)-3,12-dihydroxy-10,13-dimethyl-2,3,4,5,6,7,8,9,11,12,14,15,16,17-tetradecahydro-1H-cyclopenta[a]phenanthren-17-yl]pentanoyl]amino]acetic acid] | stably solubilize PPC |
| C[C@H](CCC(=O)O)[C@H]1CC[C@H]2[C@@H]3CC[C@@H]4C[C@H](O)CC[C@]4(C)[C@H]3C[C@H](O)[C@]12C [DCA, (4R)-4-[(3R,5R,8R,9S,10S,12S,13R,14S,17R)-3,12-dihydroxy-10,13-dimethyl-2,3,4,5,6,7,8,9,11,12,14,15,16,17-tetradecahydro-1H-cyclopenta[a]phenanthren-17-yl]pentanoic acid] | stably solubilize PPC |
| C[C@H](CCC(=O)NCCS(=O)(=O)O)[C@H]1CC[C@H]2C3CC[C@@H]4C[C@H](O)CC[C@]4(C)[C@H]3C[C@H](O)[C@]12C (stereo partly drawn) [TDCA, 2-[[(4R)-4-[(3R,5R,9S,10S,12S,13R,14S,17R)-3,12-dihydroxy-10,13-dimethyl-2,3,4,5,6,7,8,9,11,12,14,15,16,17-tetradecahydro-1H-cyclopenta[a]phenanthren-17-yl]pentanoyl]amino]ethanesulfonic acid] | stably solubilize PPC |
| C[C@H](CCC(=O)NCCS(=O)(=O)O)[C@H]1CC[C@H]2[C@@H]3[C@@H](O)C[C@@H]4C[C@H](O)CC[C@]4(C)[C@H]3CC[C@]12C [TUDCA, 2-[[(4R)-4-[(3R,5S,7S,8R,9S,10S,13R,14S,17R)-3,7-dihydroxy-10,13-dimethyl-2,3,4,5,6,7,8,9,11,12,14,15,16,17-tetradecahydro-1H-cyclopenta[a]phenanthren-17-yl]pentanoyl]amino]ethanesulfonic acid] | stably solubilize PPC |
| C[C@H](CCC(=O)O)[C@H]1CC[C@H]2[C@@H]3[C@H](O)C[C@@H]4C[C@H](O)CC[C@]4(C)[C@H]3CC[C@]12C [CDCA] | stably solubilize PPC |
| C[C@H](CCC(=O)O)[C@H]1CC[C@H]2[C@@H]3C[C@H](O)[C@@H]4C[C@H](O)CC[C@]4(C)[C@H]3CC[C@]12C [HDCA, (4R)-4-[(3R,5R,6S,8S,9S,10R,13R,14S,17R)-3,6-dihydroxy-10,13-dimethyl-2,3,4,5,6,7,8,9,11,12,14,15,16,17-tetradecahydro-1H-cyclopenta[a]phenanthren-17-yl]pentanoic acid] | stably solubilize PPC |

— US11298314B2, “Injectable composition for localized fat reduction without pain, edema, and side effects, and method for preparing same” (AMI PHARM CO., LTD., priority 2017, dated 2022)
